# Hit rate of the full screen: of about 410,000 compounds, about 18,000 (4.4%) were called active. The shares of active, inactive and inconclusive entries below differ from those in the screen. Cut-off read from the data, not from the text of the source: active = activity change below about -60%; inconclusive = no clear call, values can overlap the other calls; inactive = above about -39%. More than one record can exist for a structure, and the calls need not agree.
# Assay: qHTS Assay for inhibitors of the human cytomegalovirus (HCMV)
# Conditions: HFF cells, HCMV-luciferase reporter, 72 h; at 57.5 µM; active compounds read low
# Procedure, shortened: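 Inhibition of viral replication was scored as loss of reporter luminescence in HFFs infected with HCMV-luciferase (MOI 1 PFU/cell) for 72 h; compounds tested at 2 doses, normalized to buffer and Salinomycin controls.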
# % is set by controls: 0 for no effect and ±100 for the full control effect.
row,SMILES,"activity change, negative = inhibition"
1,COc1ccc(CN2CCC(C)(Oc3cccc(F)c3)C2)c2ccccc12 (stereo not drawn),inconclusive: -50.7%
2,Cc1ccsc1C1Nc2ccccc2C(=O)N1O (stereo not drawn),inconclusive: -43.3%
3,Nc1c(C(=O)Nc2ccccc2F)sc2nc(-c3ccco3)ccc12,inconclusive: -48.1%
4,O=[N+]([O-])c1ccc(O)c(/C=N/Nc2ccc(Cl)nn2)c1,active: -101%
5,CC(C(=O)Nc1ccccc1-c1ccccc1)N1CCN(C(=O)c2ccccc2)CC1 (stereo not drawn),inconclusive: -40.8%
6,Oc1ccc(C23CC4CC(CC(C4)C2)C3)cc1O,inconclusive: -40.9%
7,CCOC(=O)c1ccc(Nc2nc(-c3cccnc3)nc3ccccc23)cc1,inconclusive: -54.4%
8,O=C(O)c1ccc(CNC(=O)c2ccc3c(c2)C(=O)N(Cc2cccnc2)C3=O)cc1,inactive: 11.9%
9,CC1(C(=O)NCc2ccc(Cl)c(Cl)c2)Oc2cccnc2NC1=O (stereo not drawn),inconclusive: -40.7%
10,Cn1c(=O)c(=O)n(C)c2cc(S(=O)(=O)CCC(=O)Nc3ccc(C(F)(F)F)cc3)ccc21,inconclusive: -43.3%
11,COc1ccccc1NC(=O)c1sc2ncn(Cc3cccc(C)c3)c(=O)c2c1C,active: -102%
12,O=C(Nc1ccccc1Sc1ccccc1)c1ccccc1,inconclusive: -46%
13,COc1ccc(S(=O)(=O)N2CC3CC(C2)c2cccc(=O)n2C3)cc1 (stereo not drawn),active: -65.2%
14,Cc1nn(-c2ncccn2)c2c1C(=O)CC(C)(C)C2Br (stereo not drawn),inconclusive: -54.9%
15,Cc1oc2cc(O)cc(C)c2c(=O)c1-c1cnn(-c2ccccc2)c1,inconclusive: -52.7%
16,COc1ccc2[nH]cc(CCNC(=O)c3ccccc3Cl)c2c1,active: -83.8%
17,O=C(NCCOc1ccc(F)cc1)c1ccccc1SCc1ccccc1,active: -61.8%
18,COc1ccc(C(C)n2c(C)c3c(C)nnc(C)c3c2C)cc1 (stereo not drawn),active: -80.8%
19,COc1ccc(S(=O)(=O)N(CC(=O)NCc2ccccc2)c2ccc(C)cc2)cc1OC,active: -105%
20,CCOc1ccc(C(=O)Nc2ccccc2N2CCOCC2)cc1,inconclusive: -43.5%
21,O=C(Nc1c(C(=O)N2CCN(c3ccccn3)CC2)oc2ccccc12)c1cccc([N+](=O)[O-])c1,inconclusive: -48.3%
22,CN1CCN(c2ncnc3scc(-c4ccccc4Cl)c23)CC1,active: -73.2%

# A few values from above.
# Value for CCOC(=O)c1ccc(Nc2nc(-c3cccnc3)nc3ccccc23)cc1 under activity change, negative = inhibition: inconclusive: -54.4%
# Value for Cn1c(=O)c(=O)n(C)c2cc(S(=O)(=O)CCC(=O)Nc3ccc(C(F)(F)F)cc3)ccc21 under activity change, negative = inhibition: inconclusive: -43.3%
# Value for COc1ccc(CN2CCC(C)(Oc3cccc(F)c3)C2)c2ccccc12 (stereo not drawn) under activity change, negative = inhibition: inconclusive: -50.7%

# Following part:

row,SMILES,"activity change, negative = inhibition"
1,Cc1cnc(NC(=O)c2cccc(S(=O)(=O)N3CC(C)OC(C)C3)c2)s1 (stereo not drawn),inactive: -23.4%
2,CC(=O)c1sc(=S)n(-c2ccc(Cl)cc2)c1C,inconclusive: -50%
3,Cc1ccc(NC(=O)/C(=C/c2cccc([N+](=O)[O-])c2)NC(=O)C2CCCCC2)c(C)c1,active: -96.3%
4,COc1ccc(CNC(=O)c2ccc3c(c2)CCN3S(=O)(=O)c2ccc(C)cc2)cc1,inactive: -18.4%
5,CCNc1sc(C(=O)OCC)c(N)c1C#N,inconclusive: -56.8%
6,Cc1cc(NS(=O)(=O)c2ccc(NC(=O)c3cc(-c4cccnc4)nc4ccc(Cl)cc34)cc2)no1,inactive: -2.21%
7,COc1cccc(CNC(=O)CSc2ncc(S(=O)(=O)c3ccc(Br)cc3)c(=O)[nH]2)c1,inactive: -10.2%
8,Cc1ccc(-c2nnc(Nc3ccc(Cl)c(Cl)c3)c3ccccc23)cc1S(=O)(=O)NCCO,active: -90.5%
9,Cc1ccc(N2NC(=O)/C(=C/c3ccc(-c4ccc(Cl)c(C(=O)O)c4)o3)C2=O)cc1,inconclusive: -40.3%
10,C[C@H](CO)N1C[C@H](C)[C@@H](CN(C)C(=O)Nc2ccccc2)Oc2c(NC(=O)Cc3ccccc3)cccc2C1=O,inconclusive: -55.8%
11,CCSc1nsc(NC(=O)Nc2ccccc2F)n1,inactive: 16.4%
12,Cc1cccc(OCCSc2nc3ccccc3n2CC(=O)O)c1,inactive: 58.8%
13,O=C(NC(=S)Nc1cccc2c(O)cccc12)c1cccc(Br)c1,inconclusive: -46.4%
14,N[C@H](CO)Cc1ccccc1,inconclusive: -47.4%
15,COc1cc(CC(=O)Nc2cccc(S(=O)(=O)N(C)c3ccccc3)c2)cc(OC)c1OC,inconclusive: -42.3%
16,Clc1ccccc1C(c1ccccc1)(c1ccccc1)n1ccnc1,active: -69.7%
17,CN(C)c1ccc(NS(=O)(=O)c2cc3c4c(c2)CC(=O)N4CCC3)cc1,inconclusive: -59.4%
18,Cc1c(C(=O)N2CCCCC2CCN2CCCC2=O)oc2c(F)cccc12 (stereo not drawn),active: -63.3%
19,CCC(C(=O)c1ccccc1)N(C(=O)c1ccccc1Cl)N1C(=O)C2C3C=CC(C3)C2C1=O (stereo not drawn),inactive: -24.5%
20,Nc1nc(SCC(=O)NCc2ccccc2Cl)[nH]c(=O)c1NC(=O)c1ccccc1F,inconclusive: -41%
21,CC(=O)c1ccc(NC(=O)c2cnn3ccccc23)cc1,inconclusive: -52.5%

# Source: PubChem BioAssay AID1259415 (National Center for Advancing Translational Sciences (NCATS), 2018)
